Assay results from patent publication US4177287A, “Pharmaceutical compositions of N1 -acyl-N2 -phenyldiaminopropanols and process for their preparation” (Kali-Chemie Pharma GmbH, priority 1977, dated 1979).
Where a name gives a salt, the structure may show the parent alone.

Assay: in vivo
Settings: mouse, po, single application, 7-day, unfed white NMRI-mice, read-out: Toxicity LD50 p.o.
Description: The acute 7-day-toxicity is determined after a single application per os in white NMRI-mice which had not been fed. The calculation of the LD50 is carried out by probitanalysis by means of electronic data processing (see L. Cavalli-Sforza, Gustav Fischer-Verlag, Stuttgart (1964), Grundbegriffe der Biometrie, pp. 153).

## CN1[C@@H]2CC[C@H]1C[C@@H](OC(=O)C(CO)c1ccccc1)C2 (stereo partly shown) [A, atropine sulfate, reference compound]
  LD50 at 168 h: 721 mg/kg
